In PubChem BioAssay AID2551 (National Center for Advancing Translational Sciences (NCATS), 2010):
In all, about 310,000 compounds went through this assay and about 17,000 (5.5%) were called active. The shares of active, inactive and inconclusive entries below differ from those in the screen. Calls follow the shape of the dose curve; as a rule, active = well fitted inhibition curve with a large enough effect; inconclusive = small, poorly fitted or top-dose-only effect, or effect the other way; inactive = no such curve, though single readings can be large or run the other way. Potencies of inconclusive entries are doubtful fits and often do not repeat.

By UniProt entry, the sequences of proteins in these tests, tags left out. Where a name states a change or a piece, a line headed by the entry shows the natural chain unless it says otherwise.
UniProt P51450: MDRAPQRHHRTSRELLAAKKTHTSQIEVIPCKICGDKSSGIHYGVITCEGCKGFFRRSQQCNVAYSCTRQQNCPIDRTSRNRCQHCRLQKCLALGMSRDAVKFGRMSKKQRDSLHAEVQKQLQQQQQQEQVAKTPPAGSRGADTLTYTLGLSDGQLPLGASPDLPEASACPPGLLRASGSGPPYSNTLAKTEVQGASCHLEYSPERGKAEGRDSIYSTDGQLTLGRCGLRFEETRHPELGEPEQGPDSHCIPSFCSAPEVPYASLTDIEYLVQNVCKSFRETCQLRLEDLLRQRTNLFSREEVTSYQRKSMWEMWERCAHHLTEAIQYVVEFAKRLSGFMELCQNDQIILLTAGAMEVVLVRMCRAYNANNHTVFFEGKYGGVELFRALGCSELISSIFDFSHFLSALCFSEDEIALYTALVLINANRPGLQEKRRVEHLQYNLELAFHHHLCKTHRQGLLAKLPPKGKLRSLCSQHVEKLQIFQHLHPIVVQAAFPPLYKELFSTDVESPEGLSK

Each molecule was assayed against Nuclear receptor ROR-gamma (Mus musculus) (UniProt P51450) (assay: qHTS for inhibitors of ROR gamma transcriptional activity). Details: Drosophila S2 Gal4-RORgamma UAS-luciferase reporter, 20 h; activity change, negative = inhibition: at 53.6 µM (top of the series).
Method in brief: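 A Gal4/UAS one-hybrid system in insect cells: metallothionein-promoter Gal4–ROR gamma fusion plus Photinus luciferase reporter. Copper sulfate 700 uM final, 20 hr ambient incubation, luminescent detection after 10 min with reagent.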
% is scaled to controls: 0 for no effect and ±100 for the full control effect; potency is read from the fitted curve at half-maximal effect.
Also: nearly all actives have a fitted effect of over 60% in size.

| Compound | Potency | activity change, negative = inhibition |
| --- | --- | --- |
| Cc1ccc(N2C(=S)NC3c4cc(Cl)ccc4OC2(C)C3C(=O)N(C)C)cc1 (centres undefined) | active: 11.2 µM |  |
| Oc1ccc(-c2nc(=S)[nH][nH]2)cc1 | inconclusive: 6.31 µM [inhibitor, single point] |  |
| COc1ccccc1CCc1nnc(CCC(=O)NCC[C@@H]2C[C@@H]3C=C[C@H]2C3)o1 | inconclusive: 12.6 µM [activator, partial curve] |  |
| O=C(CSc1nc2ccccc2[nH]1)N=Nc1c(O)[nH]c2ccccc12 | inconclusive: 20 µM [activator, single point] |  |
| COC(C(=O)Nc1ccc(F)cc1)c1ccccc1 (centres undefined) |  | inactive: 42.6% |
| O=C(CSc1nc2cc(S(=O)(=O)N3CCOCC3)ccc2o1)NC1CCCc2ccccc21 (centres undefined) |  | inactive: -4.77% |
| Cc1csc(NC(=O)C2COc3ccccc3O2)n1 (centres undefined) | active: 14.1 µM |  |
| CCCCC(CC)CN=C(N)NC(N)=NCCCCCCN=C(N)NC(N)=NCC(CC)CCCC (centres undefined) | inconclusive: 31.6 µM [inhibitor, single point] |  |
| O=C(CN(c1ccc(Cl)c(Cl)c1)S(=O)(=O)c1ccccc1)N1CCc2ccccc2C1 | inconclusive: 35.5 µM [activator, single point] |  |
| CN(C)CCn1c(=O)n(Cc2ccccc2)c(=O)c2c3c(sc21)CCCCC3 | inconclusive: 14.1 µM [inhibitor, single point] |  |
| Cc1cc2nnc(SC(C)C#N)n2c2ccccc12 (centres undefined) | inconclusive: 0.0045 µM [inhibitor, full curve, poor fit] |  |
| S=C(NCC1CCCO1)Nc1ccccc1 (centres undefined) | active: 11.2 µM |  |
| S=C(NCCc1ccc(Cl)cc1)NC1CC1 | active: 2.51 µM |  |
| Cc1ccc(C(=O)CNc2ccc(C)cc2C)cc1 |  | inactive: -0.0143% |
| C/C(CC(=O)Nc1ccc([N+](=O)[O-])cc1)=N/NC(=O)C1CC12CCC2 (centres undefined) | inconclusive: 10 µM [inhibitor, partial curve] |  |
| NS(=O)(=O)c1ccc(NCc2c(F)cccc2Cl)cc1 | inconclusive: 12.6 µM [activator, single point] |  |
| COc1ccc(-c2cc(-c3ccc(Cl)cc3)c(C#N)c(SCC(=O)O)n2)cc1 |  | inactive: -3.71% |
| Cc1cnc(NC(=O)c2ccco2)s1 | inconclusive: 35.5 µM [inhibitor, single point] |  |
| COc1ccc(S(=O)(=O)N2CCCC2C(=O)Nc2nnc(-c3cccnc3)s2)cc1 (centres undefined) | inconclusive: 10 µM [inhibitor, single point] |  |
| Cc1ccc2nc(SCCC#N)nc(C)c2c1 |  | inactive: 15.2% |
| CCOC(=O)C1(CCCc2ccccc2)CCN(CCCn2cccn2)CC1 |  | inactive: -2.22% |
| C/C(CC(=O)Nc1cccc(Cl)c1)=N\NC(=O)Cc1ccc(Cl)cc1 | inconclusive: 35.5 µM [inhibitor, single point] |  |
| O=S(=O)(Nc1ncnc2sc3c(c12)CCC3)c1ccc2ccccc2c1 |  | inactive: -20.6% |
| COc1ccc(/C=C/C2=CC(C)(C)NC(=S)N2)cc1 | active: 1.26 µM |  |
| CC(=O)c1cc(F)c(N2CCN(C(=O)Cc3ccccc3)CC2)cc1C |  | inactive: 25% |
| Cc1ccc(NC(=S)N/N=C2\CCCCC2C)cc1 (centres undefined) | inconclusive: 22.4 µM [inhibitor, single point] |  |
| CCOc1ccc2oc(-c3ccccc3)c(C(=O)N(C)C)c2c1 |  | inactive: 0.836% |

Another view of some results above:
Compound	Potency	activity change, negative = inhibition
O=C(CSc1nc2cc(S(=O)(=O)N3CCOCC3)ccc2o1)NC1CCCc2ccccc21 (centres undefined)		inactive: -4.77%
NS(=O)(=O)c1ccc(NCc2c(F)cccc2Cl)cc1	inconclusive: 12.6 µM [activator, single point]	
O=S(=O)(Nc1ncnc2sc3c(c12)CCC3)c1ccc2ccccc2c1		inactive: -20.6%

(list continues)

| Compound | Potency | activity change, negative = inhibition |
| --- | --- | --- |
| Nc1cc(-c2ccccc2)nn1S(=O)(=O)c1ccc(Br)cc1 |  | inactive: -26.4% |
| O=C(COC(=O)/C=C/c1ccccc1[N+](=O)[O-])NC1CCS(=O)(=O)C1 (centres undefined) |  | inactive: -0.17% |
| Cc1ccc2nc(N(CCCN(C)C)C(=O)c3cc(-c4cccs4)nc4ccccc34)sc2c1 | active: 14.1 µM |  |
| C/C(=N\N=C1\NC(=O)C(CC(=O)Nc2ccc(C)c(Cl)c2)S1)C(C)C (centres undefined) | inconclusive: 35.5 µM [inhibitor, single point] |  |
| COC(=O)c1ccc(-n2c(C)cc(C(=O)CCl)c2C)cc1 | active: 11.2 µM |  |
| CCCC(C(=O)NC1CCCC1)N(CC1CCCO1)C(=O)CNS(=O)(=O)c1ccc(F)cc1 (centres undefined) |  | inactive: 8.77% |
| CC(C)(C)C(=O)N(Cc1nc2ccccc2c(=O)[nH]1)Cc1cccs1 | inconclusive: 1.58 µM [activator, partial curve] |  |
| CCOc1ccc(Cc2noc3c2C(=O)CC(C)(C)C3)cc1OCC |  | inactive: -12.2% |
| CC(=O)N1C(=O)NC2=C(C(=O)CCC2)C1c1cccc([N+](=O)[O-])c1 (centres undefined) |  | inactive: -14% |
| COc1ccccc1Oc1coc2c(CN(C)C)c(O)ccc2c1=O |  | inactive: -6.8% |
| CCN1CSC(=S)N(Cc2ccccc2)C1 | active: 10 µM |  |
| COc1cccc(C2=CC(c3ccc(OC)c(OC)c3)NC(=S)N2)c1 (centres undefined) | inconclusive: 12.6 µM [inhibitor, partial curve, poor fit] |  |
| O=c1ccn(C2OC(COP(=O)(O)OP(=O)(O)OP(=O)(O)O)C(O)C2O)c(=O)[nH]1 (centres undefined) |  | inactive: -24% |
| CCOC(=O)c1c(CN2CCOCC2)n(-c2ccccc2)c2cc(Br)c(O)cc12 | inconclusive: 11.2 µM [activator, partial curve] |  |
| CCOC(=O)C1CCCN(C(=O)N2CCOCC2)C1 (centres undefined) | inconclusive: 3.98 µM [inhibitor, single point] |  |
| O=C(Nc1ccc(Cl)c(Cl)c1)Nn1cnnc1 |  | inactive: -3.39% |
| C/C(=N\NC(=S)Nc1ccc(C)c(C)c1)c1ccc(N2CCOCC2)cc1 | active: 14.1 µM |  |
| CCOc1cccc(C2c3c(oc4ccccc4c3=O)C(=O)N2c2ccccn2)c1 (centres undefined) | inconclusive: 35.5 µM [inhibitor, single point] |  |
| CCOc1cc(/C=N/NC(=O)c2cc(C)n(-c3ccc(F)cc3)c2C)ccc1O |  | inactive: -1.64% |
| O=[N+]([O-])c1ccc(N(CCO)Cc2ccccc2)c([N+](=O)[O-])c1 | inconclusive: 35.5 µM [activator, single point] |  |
| CCn1nnnc1NCc1ccc(OCc2ccc(F)cc2Cl)c(OC)c1 | inconclusive: 10 µM [activator, partial curve] |  |
| CSC(=N)N |  | inactive: 1.59% |
| COc1cccc(NC(=O)CN(C)C(=O)c2ccccc2CCc2ccccc2)c1 |  | inactive: 30.3% |
| Cc1nnc(NC(=O)CSc2nc3c(c(=O)n2CCc2ccccc2)SC(C)C3)s1 (centres undefined) |  | inactive: -7% |
| O=C(NC1CCCC1)C(c1cccs1)N(Cc1ccco1)C(=O)Cn1nnc(-c2cccs2)n1 (centres undefined) |  | inactive: 1.02% |
| CCCNC(=O)c1ccc(COc2cccc3ccccc23)o1 | inconclusive: 14.1 µM [activator, single point] |  |
| NS(=O)(=O)c1ccc(CCNC(=O)CC(c2ccccc2)c2ccccc2)cc1 |  | inactive: 17.1% |

| Compound | Potency | activity change, negative = inhibition |
| --- | --- | --- |
| COCCn1c(SCC(=O)NC(=O)NCc2ccccc2)nc2ccccc21 | inconclusive: 22.4 µM [activator, partial curve] |  |
| COc1ccc(/C(C)=N/NC(=O)CN(c2ccc(OC)cc2)S(=O)(=O)c2ccccc2)cc1 |  | inactive: -15.8% |
| Cc1ccc(C(=O)NCC(=O)NCC(=O)OCc2ccc(Cl)cc2)cc1 | inconclusive: 7.94 µM [activator, partial curve] |  |
| CCOC(=O)/C(C#N)=C/c1ccc(OC(=O)c2ccccn2)cc1 | inconclusive: 17.8 µM [activator, single point] |  |
| Cc1ccc(S(=O)(=O)Cn2nnnc2CN2CCN(Cc3ccc4c(c3)OCO4)CC2)cc1 | inconclusive: 11.2 µM [activator, single point] |  |
| CCOC(=O)C[n+]1ccc2c([nH]c3ccccc32)c1C |  | inactive: -36% |
| COCCCn1c(SCc2cccc(OC)c2)nc2cc(OC)c(OC)cc2c1=N | inconclusive: 20 µM [inhibitor, single point] |  |
| COc1cccc(NC(=S)N(CCc2c(C)[nH]c3ccccc23)Cc2cccs2)c1 | inconclusive: 22.4 µM [inhibitor, single point] |  |
| COc1ccc(/C=C/C(=O)Oc2cc(C)[nH]c(=O)c2[N+](=O)[O-])cc1OC |  | inactive: -19.4% |
| Fc1ccc(CNCc2ccccc2C(F)(F)F)cc1 |  | inactive: -6.16% |
| CC1C(O)=C(c2nc3ccccc3[nH]2)C(=N)N1c1ccccc1 (centres undefined) | inconclusive: 35.5 µM [inhibitor, single point] |  |
| COc1ccc2[nH]c3c4c(ccc3c2c1)C(=O)C=CC4=O | active: 6.31 µM |  |
| CCN(CC)CCNC(=O)c1nn(-c2ccc(C)cc2)c(=O)c2c1c1ccccc1n2C |  | inactive: -20.3% |
| O=C(Nc1ccc(OCC(F)(F)C(F)F)c(C(F)(F)F)c1)c1ccccc1O | active: 7.94 µM |  |
| O=C(NCc1ccco1)c1ccc2c(=O)n(-c3ccccc3)c(=O)n(Cc3cccc(F)c3)c2c1 | inconclusive: 12.6 µM [activator, single point] |  |
| C=CCn1cc(C(=O)NCc2ccc3c(c2)OCO3)c(=O)c2cc(S(=O)(=O)N(CC)CC)ccc21 | inconclusive: 4.47 µM [activator, full curve] |  |
| CN(CC(=O)NCCc1ccc(F)cc1)Cc1cccs1 | inconclusive: 11.2 µM [activator, single point] |  |
| COc1ccccc1N1CCN(C2=NS(=O)(=O)c3ccccc32)CC1 |  | inactive: -6.09% |
| O=C(Cc1nc(=O)c2ccccc2s1)Nc1ccccc1 | inconclusive: 31.6 µM [inhibitor, single point] |  |
| CCOc1ccccc1C(C(=O)NCCOC)N(CCOC)C(=O)Cn1nnc2ccccc21 (centres undefined) |  | inactive: 11% |
| Cc1[nH]c2c(C)cccc2c1CN1CCC(CO)(Cc2ccccc2)CC1 |  | inactive: 20.5% |
| Cc1ccc(S(=O)(=O)Nc2cc(-c3nn(C)c(=O)c4ccccc34)ccc2N2CCOCC2)cc1 |  | inactive: -27.7% |
| CCn1c(CNC(=O)COc2ccc(C(C)C)cc2)nnc1SCC(=O)Nc1ccccc1C(C)C |  | inactive: 30.5% |
| COc1ccc(NS(=O)(=O)c2cccc(NC(=O)C34CCC(CC3)C4)c2)cc1 | inconclusive: 5.01 µM [activator, single point] |  |
| Clc1ccccc1COc1ccc(/C=N/n2cnnc2)cc1 |  | inactive: -1.64% |
